No dose or concentration is given here for some results.
System: Desulfitobacterium strain DCA1
Assay: Substrate range determination: growth on and dechlorination product from chlorinated substrates
Type: cell-based, Desulfitobacterium dichloroeliminans strain DCA1

SMILES: CCC(Cl)CCl (stereo not shown) [1,2-DCB, 1,2-dichlorobutane]
- Product: 1-butene

— patent EP1352977A2, “Novel Desulfitobacterium strain for the degradation of chloroalkenes” (UNIVERSITEIT GENT, priority 2002, dated 2003)
